Some entries share one result that the patent states for a list of compounds. At least one structure is not confirmed: it was looked up by name or label, or the drawing left a doubt.
Tested on: Pyricularia oryzae
Assay type: cell-based
Conditions: 300 ppm; radial growth after seven days, 25° C., 60% Relative Humidity; compared to the untreated check

## CCN(C)C=Nc1cc(C)c(C(=O)CSc2ccc(OC)cc2)cc1C [Compound 7, N-ethyl-N′-(4-(2-((4-methoxyphenyl)thio)acety1)-2,5-dimethylphenyl)-N-methylformimidamide]
  control: more than 70%
